The text below walks through data of article PMC3778407, “Topochemical control of the photodimerization of aromatic compounds by γ-cyclodextrin thioethers in aqueous solution” (Beilstein Journal of Organic Chemistry, 2013).

Details of data set [1]: method as in doi:10.1021/j100862a012. To be noted: no host, cited from earlier work.
A short description of data set [2]: Quantum yield of the photodimerization of ANT in γ-CD thioether solution. As to conditions: 6.0 mM γ-CD thioether in water, λ = 350 nm, experimental error ± 5 %. The class given is physicochemical.
Data set [3] in a line: Quantum yield of the photodimerization of ACE. Format: physicochemical. To be noted: host concentration 6 mM in water, λ = 300 nm, experimental error ±5%.
Data set [4] can be described thus: Quantum yield of the photodimerization of COU. The class given is physicochemical.

Where two headings read alike, the source gives them in different places. Marks after values point to notes of the source that are not given here.

Take `C1=Cc2cccc3cccc1c23` [ACE, acenaphthylene]: the “Quantum yield Φ of the photodimerization of free ACE” value is listed as 4% in data set [1] (ethanol), 5% in data set [1] (toluene) and 3% in data set [1] (water/methanol (methanol/water 20% v/v)).
On to `NCCSC[C@H]1O[C@@H]2O[C@H]3[C@H](O)[C@@H](O)[C@@H](O[C@H]4[C@H](O)[C@@H](O)[C@@H](O[C@H]5[C@H](O)[C@@H](O)[C@@H](O[C@H]6[C@H](O)[C@@H](O)[C@@H](O[C@H]7[C@H](O)[C@@H](O)[C@@H](O[C@H]8[C@H](O)[C@@H](O)[C@@H](O[C@H]9[C@H](O)[C@@H](O)[C@@H](O[C@H]1[C@H](O)[C@H]2O)O[C@@H]9CSCCN)O[C@@H]8CSCCN)O[C@@H]7CSCCN)O[C@@H]6CSCCN)O[C@@H]5CSCCN)O[C@@H]4CSCCN)O[C@@H]3CSCCN` [Host 1], for which the “Quantum yield Φ of the photodimerization of ANT” value (from here on “Quantum yield Φ … of ANT”) in data set [2] amounted to 29%.
Regarding `O=S(=O)(O)CCSC[C@H]1O[C@@H]2O[C@H]3[C@H](O)[C@@H](O)[C@@H](O[C@H]4[C@H](O)[C@@H](O)[C@@H](O[C@H]5[C@H](O)[C@@H](O)[C@@H](O[C@H]6[C@H](O)[C@@H](O)[C@@H](O[C@H]7[C@H](O)[C@@H](O)[C@@H](O[C@H]8[C@H](O)[C@@H](O)[C@@H](O[C@H]9[C@H](O)[C@@H](O)[C@@H](O[C@H]1[C@H](O)[C@H]2O)O[C@@H]9CSCCS(=O)(=O)O)O[C@@H]8CSCCS(=O)(=O)O)O[C@@H]7CSCCS(=O)(=O)O)O[C@@H]6CSCCS(=O)(=O)O)O[C@@H]5CSCCS(=O)(=O)O)O[C@@H]4CSCCS(=O)(=O)O)O[C@@H]3CSCCS(=O)(=O)O` [Host 3], the “Quantum yield Φ of the photodimerization of ACE” value in data set [3] was 28^b %. In addition, the “Quantum yield Φ … of ANT” value in data set [2] is given as 29%.
`O=C(O)CSC[C@H]1O[C@@H]2O[C@H]3[C@H](O)[C@@H](O)[C@@H](O[C@H]4[C@H](O)[C@@H](O)[C@@H](O[C@H]5[C@H](O)[C@@H](O)[C@@H](O[C@H]6[C@H](O)[C@@H](O)[C@@H](O[C@H]7[C@H](O)[C@@H](O)[C@@H](O[C@H]8[C@H](O)[C@@H](O)[C@@H](O[C@H]9[C@H](O)[C@@H](O)[C@@H](O[C@H]1[C@H](O)[C@H]2O)O[C@@H]9CSCC(=O)O)O[C@@H]8CSCC(=O)O)O[C@@H]7CSCC(=O)O)O[C@@H]6CSCC(=O)O)O[C@@H]5CSCC(=O)O)O[C@@H]4CSCC(=O)O)O[C@@H]3CSCC(=O)O` [Host 2]: in data set [2], the “Quantum yield Φ … of ANT” value amounted to 16%. For the same compound, the “Quantum yield Φ of the photodimerization of COU” value in data set [4] (6.0 mM γ-CD thioether 2, [Na2SO4] 0.0 M, λ = 300 nm) was 3.8%; in data set [4] (6.0 mM γ-CD thioether 2, [Na2SO4] 1.5 M, λ = 300 nm), 13.0%.
With `O=c1ccc2ccccc2o1` [COU, coumarin], in data set [4] (15 mM aqueous solution of COU, no host), the “Quantum yield Φ of the photodimerization of COU” value amounted to 0.11%.
As for `COCCOCCOCCSC[C@H]1O[C@@H]2O[C@H]3[C@H](O)[C@@H](O)[C@@H](O[C@H]4[C@H](O)[C@@H](O)[C@@H](O[C@H]5[C@H](O)[C@@H](O)[C@@H](O[C@H]6[C@H](O)[C@@H](O)[C@@H](O[C@H]7[C@H](O)[C@@H](O)[C@@H](O[C@H]8[C@H](O)[C@@H](O)[C@@H](O[C@H]9[C@H](O)[C@@H](O)[C@@H](O[C@H]1[C@H](O)[C@H]2O)O[C@@H]9CSCCOCCOCCOC)O[C@@H]8CSCCOCCOCCOC)O[C@@H]7CSCCOCCOCCOC)O[C@@H]6CSCCOCCOCCOC)O[C@@H]5CSCCOCCOCCOC)O[C@@H]4CSCCOCCOCCOC)O[C@@H]3CSCCOCCOCCOC` [Host 7], the “Quantum yield Φ … of ANT” value in data set [2] is recorded as 19%.
On to `O=C(O)CCSC[C@H]1O[C@@H]2O[C@H]3[C@H](O)[C@@H](O)[C@@H](O[C@H]4[C@H](O)[C@@H](O)[C@@H](O[C@H]5[C@H](O)[C@@H](O)[C@@H](O[C@H]6[C@H](O)[C@@H](O)[C@@H](O[C@H]7[C@H](O)[C@@H](O)[C@@H](O[C@H]8[C@H](O)[C@@H](O)[C@@H](O[C@H]9[C@H](O)[C@@H](O)[C@@H](O[C@H]1[C@H](O)[C@H]2O)O[C@@H]9CSCCC(=O)O)O[C@@H]8CSCCC(=O)O)O[C@@H]7CSCCC(=O)O)O[C@@H]6CSCCC(=O)O)O[C@@H]5CSCCC(=O)O)O[C@@H]4CSCCC(=O)O)O[C@@H]3CSCCC(=O)O` [Host 6], for which the “Quantum yield Φ of the photodimerization of ACE” value in data set [3] was 12^b %. Also, the “Quantum yield Φ … of ANT” value in data set [2] stood at 27%.
In the case of `CC(SC[C@H]1O[C@@H]2O[C@H]3[C@H](O)[C@@H](O)[C@@H](O[C@H]4[C@H](O)[C@@H](O)[C@@H](O[C@H]5[C@H](O)[C@@H](O)[C@@H](O[C@H]6[C@H](O)[C@@H](O)[C@@H](O[C@H]7[C@H](O)[C@@H](O)[C@@H](O[C@H]8[C@H](O)[C@@H](O)[C@@H](O[C@H]9[C@H](O)[C@@H](O)[C@@H](O[C@H]1[C@H](O)[C@H]2O)O[C@@H]9CSC(C)C(=O)O)O[C@@H]8CSC(C)C(=O)O)O[C@@H]7CSC(C)C(=O)O)O[C@@H]6CSC(C)C(=O)O)O[C@@H]5CSC(C)C(=O)O)O[C@@H]4CSC(C)C(=O)O)O[C@@H]3CSC(C)C(=O)O)C(=O)O` (stereo partly drawn) [Host 4], the “Quantum yield Φ … of ANT” value in data set [2] is 33%.
In the case of `OCC(O)CSC[C@H]1O[C@@H]2O[C@H]3[C@H](O)[C@@H](O)[C@@H](O[C@H]4[C@H](O)[C@@H](O)[C@@H](O[C@H]5[C@H](O)[C@@H](O)[C@@H](O[C@H]6[C@H](O)[C@@H](O)[C@@H](O[C@H]7[C@H](O)[C@@H](O)[C@@H](O[C@H]8[C@H](O)[C@@H](O)[C@@H](O[C@H]9[C@H](O)[C@@H](O)[C@@H](O[C@H]1[C@H](O)[C@H]2O)O[C@@H]9CSCC(O)CO)O[C@@H]8CSCC(O)CO)O[C@@H]7CSCC(O)CO)O[C@@H]6CSCC(O)CO)O[C@@H]5CSCC(O)CO)O[C@@H]4CSCC(O)CO)O[C@@H]3CSCC(O)CO` (stereo partly drawn) [Host 5], the “Quantum yield Φ … of ANT” value in data set [2] is 25%.
